According to PubChem BioAssay AID1671190 (National Center for Advancing Translational Sciences (NCATS), 2021):
Where “and” joins values, the source holds several entries; their conditions need not be identical. Identical values can stand only once. Hit rate of the full screen: of about 580,000 compounds, about 6,100 (1.1%) were called active. Inconclusive means that the source gave no clear call. Such entries were picked first, then a sample of the others. Calls follow the shape of the dose curve; as a rule, active = well fitted inhibition curve with a large enough effect; inconclusive = small, poorly fitted or top-dose-only effect, or another doubt; inactive = no such curve, though single readings can be large or run the other way. Potencies of inconclusive entries are doubtful fits and often do not repeat.

Sequences of proteins named here, by UniProt entry; tags and fusion partners are left off. A change or cut given only in a name is not applied to a line headed by its entry.
UniProt P18054: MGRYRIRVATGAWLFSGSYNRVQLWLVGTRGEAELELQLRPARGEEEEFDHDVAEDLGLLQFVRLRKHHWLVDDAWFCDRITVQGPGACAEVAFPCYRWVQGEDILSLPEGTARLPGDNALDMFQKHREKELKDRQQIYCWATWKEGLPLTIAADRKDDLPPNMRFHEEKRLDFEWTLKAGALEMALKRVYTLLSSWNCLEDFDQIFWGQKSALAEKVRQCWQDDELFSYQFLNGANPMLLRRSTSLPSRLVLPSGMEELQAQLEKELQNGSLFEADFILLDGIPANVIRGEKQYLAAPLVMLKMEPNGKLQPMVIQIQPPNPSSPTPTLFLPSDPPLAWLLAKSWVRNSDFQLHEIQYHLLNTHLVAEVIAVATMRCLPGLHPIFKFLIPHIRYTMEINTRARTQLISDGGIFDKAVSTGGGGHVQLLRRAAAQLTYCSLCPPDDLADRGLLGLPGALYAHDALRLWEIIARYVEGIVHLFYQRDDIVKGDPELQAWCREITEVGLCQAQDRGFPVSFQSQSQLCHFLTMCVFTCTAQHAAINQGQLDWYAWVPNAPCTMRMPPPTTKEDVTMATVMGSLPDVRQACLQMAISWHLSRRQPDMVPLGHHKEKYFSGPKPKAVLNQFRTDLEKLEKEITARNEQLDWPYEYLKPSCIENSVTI

These molecules were tested against Polyunsaturated fatty acid lipoxygenase ALOX12 (Homo sapiens) (UniProt P18054) (assay: Primary qHTS assay for inhibitors of human arachidonate 12S-lipoxygenase (ALOX12): Round 2). Conditions: purified 12hLO, xylenol orange hydroperoxide absorbance; activity change, negative = inhibition: at 108 µM (top of the series) unless noted.
Method in brief: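 Purified human 12hLO at 150 nM in 25 mM Hepes, 0.01% Triton X-100, pH 7.0, preincubated 15 min at room temperature with compound. Reaction started with 40 uM arachidonic acid, 30 min at room temperature. Hydroperoxide measured by Fe-xylenol orange, 573/405 nm absorbance ratio.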
% is scaled to controls: 0 for no effect and ±100 for the full control effect; potency is read from the fitted curve at half-maximal effect.

| Compound | activity change, negative = inhibition | Potency |
| --- | --- | --- |
| Cc1ccc(S(=O)(=O)Nc2ccc3c(c2)C(=O)N([C@H](C)CO)C[C@H](C)[C@H](CN(C)C(=O)Nc2cccc4ccccc24)OCCCC[C@@H](C)O3)cc1 | inconclusive: -36.2% [inhibitor] |  |
| Cc1nnc(SC(C(=O)Nc2cc(Cl)cc(Cl)c2)c2ccccc2)[nH]c1=O (stereo unspecified) |  | inconclusive: 28.2 µM [inhibitor, partial curve, poor fit] |
| CN(/N=C/c1ccccc1O)C(=S)c1ccccc1 |  | inconclusive: 39.8 µM [inhibitor, partial curve, poor fit] |
| COc1ccc(Oc2cn[nH]c2-c2ccc(OC)cc2O)cc1 |  | inconclusive: 39.8 µM [inhibitor, partial curve, poor fit] |
| COc1ccc(CSc2ccc(S(=O)(=O)N3CCOCC3)cn2)cc1F |  | inactive |
| Cc1cnc(C(=O)NC2C[C@H]3CC[C@@H](C2)N3C(=O)COc2ccc(Cl)cc2C)cn1 (stereo partly specified) |  | inconclusive: 14.1 µM [inhibitor, full curve, poor fit] |
| Cc1ccc(Cl)cc1N1CCN(C(=O)c2cnn(-c3ccc(Cl)cc3)c2C2CCNCC2)CC1 |  | inconclusive: 44.7 µM [inhibitor, partial curve, poor fit] |
| COC(=O)c1ccc(OC(=O)c2cc(Cl)ccc2Cl)cc1 |  | inactive |
| CCN(Cc1ccccc1)Cc1c(F)cccc1F |  | inconclusive: 1.78 µM [inhibitor, full curve, poor fit] |
| C=CCNC(=O)CC1Nc2c3ccccc3nc(=S)n2C1=O (stereo unspecified) |  | active: 17.8 µM |
| N#Cc1c[nH]n2c(NC3CCCC3)c(-c3ccc(Br)cc3)nc12 |  | inconclusive: 100 µM [inhibitor, single point] |
| Cn1nc(C(C)(C)C)cc1NC(=O)C1(C)CCN1C(=O)CC(c1ccccc1)c1ccccc1 (stereo unspecified) |  | inactive |
| O=C1CC(c2noc(-c3cc(F)ccc3Cl)n2)CN1c1ccc(F)cc1 (stereo unspecified) |  | inactive |
| COc1cccc(NC(=O)COc2nc(C(C)C)c3c(c2C#N)CCC3)c1 |  | inactive |
| CN1CCN(c2nc3c(c(=O)[nH]2)CCN(Cc2ccc(F)c(Cl)c2)CC3)CC1 |  | inactive |
| O=C1CCC2CN3CCc4c([nH]c5ccccc45)C3CC2C1 (stereo unspecified) |  | inconclusive: 44.7 µM [inhibitor, partial curve, poor fit] |
| CC1CCCCC1NC(=O)c1ccc(C#N)cc1 (stereo unspecified) |  | inconclusive: 14.1 µM [inhibitor, full curve] |
| O=C(Nc1cccc(S(=O)(=O)Nc2ccc(Cl)cc2)c1)c1ccccn1 |  | inconclusive: 0.398 µM [inhibitor, full curve, poor fit] |
| CCOc1cc(C=O)ccc1OCc1ccccc1 |  | inactive |
| Cc1ccc(NC(=O)C2CCN(c3ncccn3)CC2)cc1F |  | inconclusive: 126 µM [inhibitor, partial curve, poor fit] |
| COc1ccc(Nc2ncc(-c3ccccc3OC)c3c2OCC3)cn1 |  | inactive |
| CCOCCCNC(=O)C1CC(=O)N(CCc2c[nH]c3ccc(F)cc23)C1 (stereo unspecified) |  | inconclusive: 50.1 µM [inhibitor, partial curve, poor fit] |

| Compound | activity change, negative = inhibition | Potency |
| --- | --- | --- |
| CC(CO)NC(=O)CSc1nc(-c2ccccc2)c(-c2ccccc2)o1 (stereo unspecified) |  | inconclusive: 79.4 µM [inhibitor, single point] |
| CC(O)c1ccc(-c2ccc(CNCc3cccs3)o2)cc1 (stereo unspecified) |  | inactive |
| Cc1cc2c(NC(=O)Nc3ccc(F)cc3)cccc2nn1 |  | inconclusive: 3.98 µM [inhibitor, partial curve, poor fit] |
| CCOC(=O)c1ccc(Cl)c(S(=O)(=O)N2CCCC2)c1 |  | inactive |
| COC(=O)[C@H]1CCCN1C(=O)[C@@H]1[C@@H](NC(=O)Nc2ccc(F)cc2F)CCN1C(=O)c1cccn1C |  | inactive |
| CCOC(=O)/C(=C\c1cccc(O)c1)c1nc2sc(C)c(C)c2c(=O)[nH]1 |  | inconclusive: 35.5 µM [inhibitor, partial curve, poor fit] |
| O=S(=O)(c1cccc(C(F)(F)F)c1)N1c2ccccc2-n2cccc2C1c1cccnc1 (stereo unspecified) |  | inconclusive: 89.1 µM [inhibitor, single point] |
| Nc1cc2c(cc1Cl)-c1ccccc1C2 |  | inactive |
| O=C(CSc1cccs1)Nc1ccc2ccccc2c1 | inconclusive: -33.1% [inhibitor] |  |
| COc1cccc(C2=NOC(C(=O)Nc3cc(OC)c(OC)c(OC)c3)C2)c1 (stereo unspecified) |  | inconclusive: 126 µM [inhibitor, partial curve, poor fit] |
| CCOc1ccccc1Nc1ncnc2ccccc12 |  | inconclusive: 31.6 µM [inhibitor, full curve, poor fit] |
| Cc1ccccc1Nc1nnc(SCC(=O)c2ccc(Cl)s2)s1 |  | inconclusive: 35.5 µM [inhibitor, partial curve, poor fit] |
| COc1ccc(C(=O)/C=C/c2ccc(Br)cc2)cc1 |  | inconclusive: 112 µM [inhibitor, single point] |
| CCOC(=O)C1=CCC2C(=O)N(Cc3ccccc3)C(=O)C12 (stereo unspecified) |  | inconclusive: 39.8 µM [inhibitor, partial curve, poor fit] |
| O=C(Nc1ccc2c(c1)OCCO2)NC1(C(F)(F)F)Oc2ccccc2O1 |  | inconclusive: 126 µM [inhibitor, partial curve, poor fit] and inconclusive: 447 nM [inhibitor, full curve, poor fit] |
| C#CCOCCOCCOCCNc1nc(N2CCN(C(=O)[C@H](CO)n3cc([C@@H](N)C(C)C)nn3)CC2)nc(N2CCN(C(=O)[C@H](CCCCN)n3cc([C@@H](N)[C@H](C)CC)nn3)CC2)n1 |  | inactive |
| O=C(O)c1ccc(NC(=O)c2ccc(Cl)cc2)c(NC(=O)c2ccc(Cl)cc2)c1 |  | inconclusive: 50.1 µM [inhibitor, single point] |
| CC1CCc2sc(C(=O)NCC(c3ccco3)N3CCCCC3)cc2C1 (stereo unspecified) |  | inconclusive: 112 µM [inhibitor, single point] |
| COc1ccc(NC(=O)CSc2nc3ccccc3n2CC(=O)Nc2cccc(C)c2C)cc1 |  | inconclusive: 50.1 µM [inhibitor, partial curve, poor fit] |
| Cc1ccc(C)c(OCC(O)CN2CCN(CCN3C(=O)c4cccc5cccc(c45)C3=O)CC2)c1 (stereo unspecified) |  | inconclusive: 15.8 µM [inhibitor, full curve] |
| Cc1ccc(-n2c(SCC(N)=O)nc3c(oc4ccccc43)c2=O)cc1 |  | inconclusive: 158 µM [inhibitor, partial curve, poor fit] |
| COc1cc(OC)c(NC(=O)Nc2sc3nc4n(c(=O)c3c2C)CCC(C)CC4)cc1Cl (stereo unspecified) | inconclusive: -34.8% [inhibitor] |  |

| Compound | activity change, negative = inhibition | Potency |
| --- | --- | --- |
| COc1ccc(NC(=O)CSc2nnc(COc3ccc(C)cc3)n2Cc2ccco2)c(OC)c1 |  | inactive |
| NC(=O)c1ccccc1NC(=S)NC(=O)c1ccc(Br)o1 |  | inconclusive: 15.8 µM [inhibitor, partial curve] |
| CC(=O)NC(CCCCNC(=S)NC1CCCCC1)C(=O)O (stereo unspecified) |  | inconclusive: 31.6 µM [inhibitor, partial curve, poor fit] |
| Oc1ccc(C2CCN(c3ccnc4ccccc34)CC2)cc1O |  | active: 3.06 µM |
| CC(C)CN1CCC(CN2CCOCC2)CC1 |  | inactive |
| S=C(Nc1ccccc1)Nc1ccccn1 |  | inconclusive: 35.5 µM [inhibitor, partial curve, poor fit] |
| O=S1(=O)CCO[C@H]2Cc3ccccc3[C@H]2N1Cc1ccc(Cl)cc1 |  | inconclusive: 35.5 µM [inhibitor, single point] |
| C#CCNC(=O)c1onc(-c2ccc(F)cc2)c1[C@H](C)O |  | inconclusive: 141 µM [inhibitor, partial curve, poor fit] |
| Cc1ccc(-c2c[n+](CC(=O)Nc3nc(-c4ccc(F)cc4)cs3)c3n2CCC3)cc1 |  | inconclusive: 79.4 µM [inhibitor, partial curve, poor fit] |
| CCN1CCN(C(C(=O)NC2CCCCC2)c2ccnc3ccccc23)CC1 (stereo unspecified) |  | inconclusive: 44.7 µM [inhibitor, partial curve, poor fit] |
| CC(C)Oc1cccc(C(=O)NC(=S)Nc2ccccc2)c1 |  | active: 22.4 µM |
| Oc1ccc(-c2nc(C3CC3)nc3c2CCN(CC2CCCCC2)CC3)cc1 |  | inconclusive: 50.1 µM [inhibitor, partial curve, poor fit] |
| COc1ccc(OC)c(NC(=O)Cn2c(-c3ccccc3)nc(C)c(CCO)c2=O)c1 |  | inactive |
| Cc1cc(C)cc(C(=O)NC(=S)Nc2ccc3c(c2)OCCO3)c1 |  | active: 6.31 µM |
| CCN1C[C@@H]2[C@@H]3C(=O)N(Cc4ccccc4)C(=O)[C@@H]3[C@](CC)(C1=O)N2C(=O)c1ccc(Br)cc1 |  | inconclusive: 6.31 µM [inhibitor, partial curve, poor fit] |
| N#CCCNC(Cc1ccccc1)C(=O)O (stereo unspecified) |  | inconclusive: 0.251 µM [inhibitor, full curve, poor fit] |
| CC(C)c1ccc(CNC(=O)c2ccc3c(c2)N(C)C2CCCCN2C3=O)cc1 (stereo unspecified) |  | inactive |
| CCN(CC)CC(=O)Nc1cc(N(C)C)nc2ccccc12 |  | inactive |
| COc1ccccc1C(=O)CSc1nccn1C |  | inconclusive: 50.1 µM [inhibitor, partial curve, poor fit] |
| O=C(CSc1nc(C(F)(F)F)nc2ccccc12)NC1CCCCCC1 |  | inconclusive: 50.1 µM [inhibitor, partial curve, poor fit] |
| c1ccc(C(Nc2cccnc2)c2ccccc2)cc1 |  | inactive |
| O=C(O)c1ccc2nc(CO)[nH]c2c1 |  | inconclusive: 31.6 µM [inhibitor, single point] and inconclusive: 10 µM [inhibitor, full curve, poor fit] |
